# Measurements taken from PubChem BioAssay AID1347076 (National Center for Advancing Translational Sciences (NCATS), 2019).
# About 13,000 (3.2%) of roughly 400,000 compounds were called active. Inconclusive means that the source gave no clear call. Such entries were picked first, then a sample of the others. Calls follow the shape of the dose curve; as a rule, active = well fitted cell-killing curve with a large enough effect; inconclusive = small, poorly fitted or top-dose-only effect, or effect the other way; inactive = flat fitted curve, though single readings scatter. A potency beside an inconclusive call is a rough fit, not a confirmed value.
# Assay: qHTS assay for MDR1-selective chemotherapeutics: Primary screen using the drug-selected MDR subline cells KB-V1; also: nearly all actives have a fitted effect of over 60% in size
# Conditions: KB-V1 MDR cells viability, CellTiter-Glo, 72 h; activity change, negative = cytotoxicity: at 46.1 µM (top of the series)
# Procedure, shortened: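 Compound-treated KB-V1 multidrug-resistant cells, 72 h, 37 degrees C; viability by CellTiter-Glo. Fitted qHTS curves give the values.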
# % is scaled to controls: 0 for no effect and ±100 for the full control effect; potency is read from the fitted curve at half-maximal effect.
SMILES,"activity change, negative = cytotoxicity",Potency
COc1ccc(-n2ccnc(NCc3cccs3)c2=O)cc1OC,inactive: -9.76%,
C[C@H](CO)N1C[C@H](C)[C@@H](CN(C)Cc2cncnc2)Oc2cc(Br)ccc2S1(=O)=O,,"inconclusive: 16.4 µM [rising, single point]"
COc1ccc(COc2cc(-c3cccc(OC)c3)nc3ccc(NC(C)=O)cc23)cc1,inactive: 0%,
CCOC(=O)C1=C(C)N=c2sc(=Cc3cc(Cl)c(OCC(=O)O)c(OC)c3)c(=O)n2C1c1ccccc1Cl (configuration not stated),,"inconclusive: 18.4 µM [cytotoxic, single point]"
O=C(NC(=S)Nc1ccc(-c2nc3ncccc3o2)cc1)c1ccccc1F,inactive: -24.4%,
CCc1ccc(C2C3=C(CC(C)(C)CC3=O)OC3=C2C(=O)CC(C)(C)C3)cc1,,"inconclusive: 16.4 µM [cytotoxic, single point]"
Cc1ccc(S(=O)(=O)N2CCN(C)CC2)c(C)c1,,"inconclusive: 20.6 µM [cytotoxic, single point]"
Cc1ccc(CN(CC(=O)N/N=C/c2ccccc2[N+](=O)[O-])S(=O)(=O)c2ccc(C)cc2)cc1,inactive: -3.23%,
O=S(c1cc(Cl)cc(Cl)c1O)c1cc(Cl)cc(Cl)c1O,,"inconclusive: 18.4 µM [cytotoxic, single point]"
Cc1ccc(NC(=O)C2(C)CCN2C(=O)C2(c3ccc(Cl)cc3)CC2)cc1 (configuration not stated),,"inconclusive: 14.6 µM [cytotoxic, partial curve]"
Cc1ccccc1Cn1cnc2c(NS(C)(=O)=O)c(C)c(C)cc21,,active: 16.4 µM
COc1ccc(-n2nc3ccc(NC(=O)c4ccc(C#N)cc4F)cc3n2)cc1Cl,,"inconclusive: 9.2 µM [rising, partial curve, poor fit]"
CCCn1c(SCC(=O)NCC)nc2sc3c(c2c1=O)CCC3,,"inconclusive: 29.1 µM [cytotoxic, partial curve, poor fit]"
CCN(CC)CC(=O)Nc1ccc(Oc2ccc(NC(=O)CN(CC)CC)cc2)cc1,,"inconclusive: 0.0259 µM [cytotoxic, partial curve, poor fit]"
Cc1ccc(NC(=O)CCc2c(C)nn(-c3ccc(N4CCOCC4)nn3)c2C)c(C)c1,,inactive
CCCCN(CC)C(=O)CSc1nc2n[nH]c(C)c2c(=N)n1-c1cccc(C)c1,,"inconclusive: 23.1 µM [cytotoxic, single point]"
N#Cc1ccccc1OCC(=O)NNC(=O)CCNC(=O)c1ccccc1,,"inconclusive: 29.1 µM [rising, single point]"
COc1cc(-c2nnc(SCC(=O)N(C)C3CCS(=O)(=O)C3)o2)cc(OC)c1OC (configuration not stated),inactive: 0.211%,
Cc1cccn2cc(-c3c[nH]c4ccccc34)nc12,inactive: 0%,
CCOc1ccccc1NC(=O)C(CC(C)C)NC(=O)C1CCC(C)CC1 (configuration not stated),,"inconclusive: 9.2 µM [cytotoxic, single point]"
COc1cccc2sc(NC(=O)CS(=O)(=O)c3ccc(C)cc3)nc12,inactive: 1.98%,
CCCCN(C)Cc1c(C(=O)N2CCc3ccccc3C2)nc2ccc(Cl)cn12,,"inconclusive: 29.1 µM [rising, single point]"
CCc1c(C)sc(NC(=O)c2cccs2)c1C(=O)OC(C)C,inactive: 4.21%,
COc1ccc(/C=C2\NC(=O)C(C=NCc3ccccc3)=C2O)cc1,inactive: 3.21%,

SMILES,"activity change, negative = cytotoxicity",Potency
Cn1cnc(S(=O)(=O)N2CCCCC2c2cc(C(=O)Nc3ccc(F)c(Cl)c3)no2)c1 (configuration not stated),inactive: 2.96%,
Cc1cccc(CC(=O)Nc2c3c(nn2-c2cccc(Cl)c2)CS(=O)C3)c1 (configuration not stated),,active: 20.6 µM
Cc1ccc(Cl)cc1N1CCN(C(=O)Cc2cn(C)c3ccccc23)CC1,,"inconclusive: 18.4 µM [cytotoxic, single point]"
COc1cccc(COC(=O)c2ccc(-c3nnn(Cc4cccc(OC)c4)n3)cc2)c1,inactive: -13.4%,
O=C(Nc1nccs1)c1ccc(S(=O)(=O)NCc2cccs2)cc1,,active: 18.4 µM
C=CCCC1(C)C(=O)N(c2ccccc2)c2ccccc21 (configuration not stated),,"inconclusive: 18.4 µM [cytotoxic, single point]"
O=C(Nc1nnc(SCc2ccc(F)cc2)s1)c1cnccn1,,"inconclusive: 14.6 µM [cytotoxic, single point]"
Cc1ccc(Nc2nc(C)nc3c2oc2ccccc23)cc1,,"inconclusive: 25.9 µM [cytotoxic, single point]"
O=C(CCCCn1c(=O)[nH]c2ccccc2c1=O)N1CCN(c2cccc(C(F)(F)F)c2)CC1,,"inconclusive: 18.4 µM [cytotoxic, single point]"
COc1ccccc1OCCCCN1CCN(C(c2ccccc2)c2ccccc2)CC1,,"inconclusive: 18.4 µM [cytotoxic, single point]"
Cc1ccc(S(=O)(=O)N2CCC(=O)N([C@H](COCc3cccc(C)c3)C(C)C)CC2)cc1,,"inconclusive: 4.11 µM [cytotoxic, full curve]"
O=C(CN1C(=O)S/C(=C\c2cccs2)C1=O)Nc1ccc(O)c(C(=O)O)c1,,"inconclusive: 16.4 µM [rising, single point]"
CCS(=O)(=O)c1ccc2oc(Nc3ccccc3Cl)nc2c1,,"inconclusive: 0.517 µM [cytotoxic, full curve]"
COc1cc(/C=C(\C#N)c2nc3ccccc3s2)ccc1OCC(=O)Nc1ccccc1,,active: 9.2 µM
O=C(NNC(=O)c1ccc(Cl)c(Cl)c1)c1cccnc1,inactive: 4.17%,
Cc1cc(/C=C2/C(=O)NN(c3ccccc3)C2=O)c(C)n1-c1cccc(O)c1,inactive: 0%,
CN(C)CCOc1nc(-c2ccccc2)nc2c1oc1ccccc12,,"inconclusive: 20.6 µM [cytotoxic, single point]"
CCOC(=O)N1CCN(C(=O)CSc2nc(-c3cccc(C)c3)ns2)CC1,,"inconclusive: 18.4 µM [cytotoxic, partial curve]"
COc1cccc(C2NC(=S)NC3=C2CCc2ccccc23)c1 (configuration not stated),inactive: -17.2%,
O=C(N1CCCCCC1)N1CCN(S(=O)(=O)N2CCCCC2)CC1,,"inconclusive: 14.6 µM [cytotoxic, single point]"
COc1cc(OC)cc(C(=O)N[C@H](C(=O)Nc2cc(C)cc(C)c2)C(C)C)c1,inactive: -1.95%,
CCCc1nn(-c2cc(Cl)ccc2OC)c2c1C(=O)CCC2,,"inconclusive: 29.1 µM [cytotoxic, single point]"
COc1ccccc1C(=O)N(Cc1nc(-c2cccc(C)c2)no1)C(C)C,inconclusive: 33.3%,
CCc1ccc(CNC(=O)C2CCCN(c3nn4c(=O)cc(C)nc4s3)C2)cc1 (configuration not stated),inactive: 12.3%,

SMILES,"activity change, negative = cytotoxicity",Potency
Cc1cccc(-n2c(CCc3ccccc3)nnc2SCC(=O)c2ccccc2)c1,,"inconclusive: 7.31 µM [cytotoxic, partial curve]"
O=C(O)c1ccc(Cn2cnc3cccnc32)cc1,,"inconclusive: 9.2 µM [rising, partial curve, poor fit]"
CCOCCn1cnc2sc(C(=O)NCCCN3CCOCC3)c(C)c2c1=O,inactive: -3.53%,
C1=Cc2ccccc2/C1=C\c1cccc(/C=C2\C=Cc3ccccc32)c1,,"inconclusive: 29.1 µM [cytotoxic, single point]"
O=C(NCc1ccc2c(c1)OCO2)NC1CCCCC1,inactive: 5.53%,
CC(=O)c1cccc(S(=O)(=O)Nc2ccccc2N2CCOCC2)c1,inactive: 0%,
CCCn1c(N2CCN(C(=O)NCc3ccccc3)CC2)nc2ccccc21,,"inconclusive: 2.91 µM [cytotoxic, full curve, poor fit]"
COc1ccc(C(C)=O)cc1COC(=O)CNC(=O)C1CCCCC1,,"inconclusive: 7.31 µM [rising, partial curve, poor fit]"
CCCc1cc(=O)oc2cc(C)cc(O)c12,,active: 13 µM
O[C@@H]1CN(CC2CCCCC2)[C@@H](c2ccccc2)C[C@H]1n1cc(C2CC2)nn1,,"inconclusive: 13 µM [cytotoxic, partial curve]"
CCn1nc(C)cc1-c1nnc(SCC(=O)Nc2ccccc2)n1CCCOC,,"inconclusive: 20.6 µM [cytotoxic, single point]"
O=C(NC1CCCc2ccccc21)C1CCN(S(=O)(=O)c2ccccc2)CC1 (configuration not stated),,"inconclusive: 8.2 µM [cytotoxic, partial curve, poor fit]"
COc1ccc(NC(=S)N(C)CC2COc3ccccc3O2)cc1 (configuration not stated),,"inconclusive: 29.1 µM [rising, single point]"
O=C(NNC(=O)c1ccc2ccccc2c1O)NC1CCCCC1,inactive: 3.8%,
O=C(Nc1ccc2nn(-c3ccc(F)cc3)nc2c1)c1cccnc1,,"inconclusive: 29.1 µM [cytotoxic, partial curve, poor fit]"
Cc1cc(=O)[nH]c(Nc2c(C)n(C)n(-c3ccccc3)c2=O)n1,inactive: 0%,
CCOc1ccccc1-c1noc(CCC(=O)NC2CCCCC2)n1,,"inconclusive: 29.1 µM [cytotoxic, single point]"
CCOC(=O)Cn1c(=O)c2c(nc3n2CCCN3Cc2ccccc2)n(C)c1=O,inactive: -3.79%,
CC(C)C[C@@H](CN1CCCC1CN1C(=S)NC[C@@H]1Cc1ccccc1)N1C[C@H](Cc2ccccc2)N(CC2CCCCCC2)C1=S (some centres not stated),,"inconclusive: 18.4 µM [cytotoxic, partial curve, poor fit]"
CCOP(=O)(OCC)C(Cc1ccccc1)N=C(c1ccccc1)c1ccccc1 (configuration not stated),,"inconclusive: 18.4 µM [cytotoxic, partial curve]"
Cc1cc(N2CCOCC2)nc2ccc(NC(=O)C3CCC(C)CC3)cc12 (configuration not stated),inactive: -1.63%,
N#Cc1ccc(COC(=O)C2CCC(=O)N2)cc1 (configuration not stated),inactive: 0%,
Cn1c(Cc2cccs2)nnc1SCC(=O)N1CCc2ccccc21,,"inconclusive: 6.51 µM [cytotoxic, partial curve]"
CCc1ccc(OCc2nc(-c3ccc(-n4cccc4)cc3)no2)cc1,inactive: 0%,

# Among those listed so far, these have fluorine.
SMILES,"activity change, negative = cytotoxicity",Potency
O=C(NC(=S)Nc1ccc(-c2nc3ncccc3o2)cc1)c1ccccc1F,inactive: -24.4%,
COc1ccc(-n2nc3ccc(NC(=O)c4ccc(C#N)cc4F)cc3n2)cc1Cl,,"inconclusive: 9.2 µM [rising, partial curve, poor fit]"
Cn1cnc(S(=O)(=O)N2CCCCC2c2cc(C(=O)Nc3ccc(F)c(Cl)c3)no2)c1 (configuration not stated),inactive: 2.96%,
O=C(Nc1nnc(SCc2ccc(F)cc2)s1)c1cnccn1,,"inconclusive: 14.6 µM [cytotoxic, single point]"
O=C(CCCCn1c(=O)[nH]c2ccccc2c1=O)N1CCN(c2cccc(C(F)(F)F)c2)CC1,,"inconclusive: 18.4 µM [cytotoxic, single point]"
O=C(Nc1ccc2nn(-c3ccc(F)cc3)nc2c1)c1cccnc1,,"inconclusive: 29.1 µM [cytotoxic, partial curve, poor fit]"
